In PubChem BioAssay AID1498 (National Center for Advancing Translational Sciences (NCATS), 2009):
Some of the results follow. The main result of the screen is listed elsewhere. These columns were measured beside it and carry no call. The list favours compounds with an active or inconclusive main result. Words in brackets tell the shape of the fitted curve; partial curves, single points and poor fits give uncertain potencies.

Test: Confirmation Concentration-Response Assay for Modulators of Lamin A Splicing
Details: HeLa lamin A splicing GFP/RFP minigene, Acumen, 48 h; for ratio activity: GFP/RFP ratio at top concentration; for ratio activity / RFP activity: at 46.1 µM; for RFP activity: RFP channel at top concentration
In short: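 S3 HeLa cells stably expressing lamin A-EGFP splicing minigene and DsRed2, 600 cells/well in Opti-MEM with 2% FBS, compounds 48 h at 37C; laser-scanning cytometry (488 nm), GFP/RFP total intensity ratio analysed; 0.5% DMSO.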

[1] = measured here: GFP/RFP ratio splicing readout
[2] = measured here: RFP viability/nonspecific counter channel

Structure (SMILES)	ratio activity [%]	RFP activity [%]	AC50 [1]	AC50 [2]
Cc1ccsc1CNc1ncnc2ccc(-c3c(C)noc3C)cc12	-13.3	-42.1	2.24 µM [falling, full curve, poor fit]	35.5 µM [falling, single point]
Oc1cccc2ccc(Nc3ccccn3)nc12	112	-98.4	25.1 µM [rising, partial curve, poor fit]	2 µM [falling, full curve]
CCCCn1c(SCc2c(C)noc2C)nc2cc(S(N)(=O)=O)ccc21	-54.8	30.1	5.01 µM [falling, full curve]	5.62 µM [rising, partial curve, poor fit]
Cc1noc(C)c1-c1ccc2ncnc(NCc3ccco3)c2c1	-45.5	53.4	3.55 µM [falling, full curve]	15.8 µM [rising, full curve, poor fit]
Cc1cccc(/C=C(\c2nc3ccccc3[nH]2)S(=O)(=O)c2ccccc2)c1	-24.4	-66.4	1.41 µM [falling, full curve, poor fit]	7.94 µM [falling, full curve, poor fit]
COc1c(C)c2c(c(O)c1C/C=C(\C)CCC(=O)O)C(=O)OC2	-58.8	29.9	0.447 µM [falling, full curve]	0.631 µM [rising, full curve, poor fit]
Cc1ccc(NS(=O)(=O)c2cc([N+](=O)[O-])ccc2NNC(=S)Nc2cccc(Cl)c2)c(C)c1	-41.1	-3.54	3.98 µM [falling, full curve, poor fit]	7.94 µM [rising, full curve, poor fit]
CSc1ccc(CNc2ncnc3ccc(-c4c(C)noc4C)cc23)cc1	-26.1	-34.2	12.6 µM [falling, single point]	3.55 µM [falling, full curve, poor fit]
CCOC(=O)Cn1c(-c2nonc2NC(=O)c2ccccc2F)nc2ccccc21	-52.8	17.5	0.891 µM [falling, full curve, poor fit]	2.82 µM [rising, full curve, poor fit]

Look-ups from the list:
RFP activity [%] with Oc1cccc2ccc(Nc3ccccn3)nc12 is entered as -98.4
AC50 [1] with CSc1ccc(CNc2ncnc3ccc(-c4c(C)noc4C)cc23)cc1 is entered as 12.6 µM [falling, single point]
